Patent publication US20240124441A1, “POLYMORPH OF LATREPIRDINE DIHYDROCHLORIDE” (BIGESPAS LTD., priority 2021, published 2024)
The name of at least one read-out is uncertain.

Assay: Bioavailability study: Latrepirdine concentration in blood serum after oro-gastric gavage
Details: overall conclusion from plasma and brain data

Compound: Cc1ccc2c(c1)c1c(n2CCc2ccc(C)nc2)CCN(C)C1 [Polymorph DMB-I, 2,8-dimethyl-5-[2-(6-methylpyridin-3-yl)ethyl]-3,4-dihydro-1H-pyrido[4,3-b]indole]
- Bioavailability compared with other crystalline forms: superior bioavailability
